38 molecules from PubChem BioAssay AID445 (National Center for Advancing Translational Sciences (NCATS), 2006) can be followed below.

“And” between values parts separate entries of the source, which are not always exact repeats. Equal values may be shown once. This is one part of the list. The main result of the screen is listed elsewhere. These columns were measured beside it and carry no call. Most of these compounds were active or inconclusive in the main read-out, so they are no random draw. The note in brackets gives the kind of curve behind each potency; many fits are weak.

The nature of the assay: IkB Signaling. Conditions: ABC-DLBCL IkBa-CBG/CBR dual luciferase ratio (green luciferase fused to IkBa over red control in OCI-Ly3 lymphoma cells), 4 h. The gist of the method: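 Curves were fitted separately to fusion (green), unfused (red) and ratio luminescence, then classed by r2, magnitude and activity. Cells: OCI-Ly3, 4 h compound plus doxycycline at 37C; 10 uM MG-132 defined full response.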
The mark [1] stands for this setting: measured here: control luc red channel unless noted.
Setting [2] is: measured here: IkB-luc green channel.
Where [3] appears, read: measured here: control luc red channel.

Regarding `COC(=O)COc1ccc(S(=O)(=O)N2CCN(c3ccccc3F)CC2)cc1`, under setting [1], the AC50 (commonly the concentration giving half of the maximal activity seen) was 15.8 µM [falling, partial curve]. With `COc1ccc(OC)c(C(=O)CSc2nnc(Cc3cccs3)n2C)c1`, the AC50 under setting [1] is 39.8 µM [rising, single point] [measured here: IkB-luc green channel]. For `CCCCCn1c(CCNC(=O)c2cccc(C)c2)nc2ccccc21`, under setting [1], the AC50 is 15.8 µM [falling, partial curve].

With `Cc1ccc(S(=O)(=O)c2cn(CC(=O)Nc3cccc(C)c3)c3cc4c(cc3c2=O)OCO4)cc1`, the AC50 under setting [1] is 25.1 µM [falling, single point].

On to `CC1CCC(C(=O)NC(C(=O)OCC(=O)c2ccc(Br)cc2)C(C)C)CC1` (stereo unspecified), for which the AC50 under setting [1] was 3.16 µM [falling, full curve]. For the molecule `Cc1ccccc1/C=C(\C#N)c1nc(-c2ccc(Cl)cc2)cs1`, the AC50 under setting [1] is 2.51 µM [rising, full curve]. For the molecule `Cc1csc2nc(-c3ccc(NS(=O)(=O)c4cc(F)ccc4F)cc3)cn12`, the AC50 under setting [1] is 25.1 µM [falling, partial curve]. With `COc1ccc(CCN2C(=O)CN(C3CCCCCC3)C(=O)C2c2ccc(OC(C)C)c(OC)c2)cc1OC` (stereo unspecified), under setting [1], the AC50 is 39.8 µM [falling, single point]. As for `CN(C(=O)c1ccc2c(Cl)c3c(nc2c1)CCC3)c1ccccc1F`, the AC50 under setting [1] is 31.6 µM [falling, partial curve]. On the same count and under the same terms, the same measure for `Cc1ccc(-c2nn3c(C)nnc3c3ccccc23)cc1S(=O)(=O)NCc1ccco1`: 5.01 µM [rising, full curve, poor fit] [measured here: IkB-luc green channel]; for `Cc1c(C(=O)OCC(=O)c2c(N)n(CC(C)C)c(=O)n(C)c2=O)oc2ccccc12`: 7.94 µM [falling, partial curve]; for `CC(=O)n1c2ccccc2c2c(C#N)c(N3CCCCC3)sc21`: 1.58 µM [rising, partial curve]. On the same count and under the same terms, the same measure for `COc1cccc(-c2cn3ncsc3n2)c1`: 0.251 µM [rising, full curve]; for `Cc1cccc(NC(=O)c2cc(S(=O)(=O)N3CCCCCC3)cn2C)c1C`: 25.1 µM [falling, single point]. The same measure, in the same setting: the same measure for `COc1ccc(C2=NOC(C(=O)Nc3cc(Br)ccc3O)C2)cc1OC` (stereo unspecified): 15.8 µM [falling, partial curve]. `CCc1ccc(CNC(=O)C2CCCN(S(=O)(=O)c3ccc4c(ccn4C)c3)C2)cc1` (stereo unspecified): the AC50 under setting [1] is 2.51 µM [falling, partial curve]. On to `CCOC(=O)N1CCC(NC(=O)c2cc(-c3ccc(F)cc3)[nH]c2C)CC1`, for which, under setting [1], the AC50 was 15.8 µM [falling, partial curve]. With `Cc1cc(C)c2c(n1)sc1c(=O)n(-c3ccccc3C(F)(F)F)nnc12`, the concentration at half-maximal activity (AC50) under setting [1] was 1.58 µM [rising, full curve]. For the molecule `COCCOC(=O)c1[nH]c2c(c1C)C(=O)CC(c1ccco1)C2` (stereo unspecified), the AC50 was 3.16 µM [rising, partial curve] under setting [2] and 1.26 µM [rising, full curve, poor fit] under setting [3]. In the case of `CCSc1nc2c([nH]c3ccccc32)c(=O)n1-c1ccc(F)cc1`, the AC50 under setting [1] is 15.8 µM [rising, partial curve, poor fit]. With `Cc1cccc(C(C)C)c1NC(=O)C(NS(=O)(=O)c1cccc2nsnc12)c1ccccc1` (stereo unspecified), under setting [1], the AC50 was 10 µM [falling, partial curve]. Regarding `Nc1c2ccccc2nc2ccccc12`, the AC50 is, setting by setting: under setting [2], 6.31 µM [rising, full curve]; under setting [3], 10 µM [rising, partial curve].

Consider `Cc1cccc(-n2ncc3c(NC(C)C)ncnc32)c1`, for which, under setting [1], the AC50 is 20 µM [falling, partial curve]. Take `C[C@@H]1CNCCN1S(=O)(=O)c1cccc2cnccc12`: the AC50 is, setting by setting: under setting [2], 15.8 µM [falling, partial curve] and 25.1 µM [falling, partial curve, poor fit]; under setting [3], 15.8 µM [falling, partial curve] and 12.6 µM [falling, partial curve] and 5.01 µM [falling, partial curve]. On to `CCOC(=O)c1scc(-c2ccccc2)c1S(=O)(=O)Nc1ccccc1OC`, for which, under setting [1], the AC50 was 3.98 µM [falling, partial curve]. On to `N#Cc1nc(-c2ccc(COc3ccc(Cl)cc3)o2)oc1N1CCCCC1`, for which the AC50 under setting [1] was 0.398 µM [falling, partial curve]. On the same count and under the same terms, the same measure for `O=C1c2[nH]nc(-c3ccccc3O)c2C(c2cccc(OCc3ccccc3)c2)N1CCCO` (stereo unspecified): 25.1 µM [falling, partial curve].

Take `CCc1cccc(C)c1Nc1c(-c2ccc(F)cc2)nc2sccn12`: the AC50 under setting [1] is 15.8 µM [falling, partial curve].

Regarding `Cc1ccc2c(=O)c(C(=O)c3ccccc3)cn(CC(=O)NCc3ccccc3)c2n1`, the AC50 under setting [1] was 2.51 µM [falling, partial curve].

Consider `CCOc1ccc(NC(=O)CSc2ncc(S(=O)(=O)c3ccc(F)c(C)c3)c(=O)[nH]2)cc1`, for which the AC50 under setting [1] is 39.8 µM [falling, single point].

As for `CCOc1ccc(C2C(=O)N(C3CCCCC3)CC(=O)N2Cc2ccc(F)cc2)cc1OC` (stereo unspecified), the half-maximal activity concentration (AC50) under setting [1] was 3.16 µM [rising, partial curve].

With `O=C(O)c1oc2ccccc2c1-n1cccc1`, the AC50 under setting [1] is 15.8 µM [falling, partial curve]. In the case of `Cc1cccc(CNC(=O)c2ccc3c(c2)N(C)CCS3)c1`, under setting [1], the half-maximal activity concentration (AC50) was 20 µM [falling, single point]. Still for that read-out and setting: the same measure for `CC1(C)C(C=C(Cl)Cl)C1C(=O)N1CCN(c2ccccc2)CC1` (stereo unspecified): 25.1 µM [falling, partial curve]; for `O=S(=O)(CCSc1nc2ccccc2o1)c1nc2ccccc2s1`: 5.01 µM [falling, partial curve]; for `Cc1ccccc1CNC(=O)Cn1nc(C)c2nn(-c3ccc(Cl)cc3)c(C)c2c1=O`: 0.0501 µM [falling, full curve]. `COc1ccc(N2CCN(c3ncccc3-c3nc(-c4ccccc4C)no3)CC2)cc1`: the AC50 under setting [1] is 25.1 µM [falling, single point]. Same read-out and setting: the same measure for `CCc1cccc(C)c1NC(=O)CN1CCN(Cc2ccccc2Cl)S1(=O)=O`: 10 µM [falling, partial curve].
